# Percent effect of library compounds

A: 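Whole-cell growth test on Mycobacterium tuberculosis, read after 4 days in a medium based on cholesterol and the lipid DPPC; the read-out is not stated. Concentration: 50 µM. Direction is inferred from retests: higher values go with more growth inhibition. Of about 69,000 compounds tested this way, about 370 (0.54%) reached 50% or more in at least one test.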
B: 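Growth of Mycobacterium tuberculosis over 3 days (7H9 medium with glucose and tyloxapol); the read-out is not stated. Tested at 50 µM. The record gives no direction; compounds that gave an IC50 in retests scored well above the rest, so higher reads as more growth inhibition. Of about 69,000 compounds tested this way, about 760 (1.1%) reached 50% or more in at least one test.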

The filed quantity is “Percent Effect” (%). The record does not define 0% and 100%; most values in the screen are far below 50% and negative numbers occur (in some assays of this library far below -100). Compounds were drawn at random from those tested, without regard to their results. Two or more numbers in one place are separate tests of the same structure; such repeats can differ widely.

{"compound": "CNC(=O)COc1ccccc1CNC1CCc2nc(C)nn2C1", "stereo": "configuration not stated", "A": 6.972, "B": "11.7 and -2.035"}
{"compound": "COc1ccccc1C(=O)N(C)Cc1ncc(C)c(OC)c1C", "A": -12.16, "B": -13.47}
{"compound": "Cc1cnn(CCCn2c(C)cc(C(F)(F)F)cc2=O)c1", "A": -16.58, "B": "-0.7688 and -18.25"}
{"compound": "CCOCCNCC1CCN(CCO)CC1", "A": -15.36, "B": "-30.79 and 9.214"}
{"compound": "CNCc1nc(-c2ccc3c(c2)OCO3)c[nH]1.Cl.Cl", "A": -14.07, "B": "-32.47 and -2.545"}
{"compound": "C=C(C)CN1CCC(NC(=O)NCCc2ccc(N(C)C)cc2)CC1", "A": 3.985, "B": "11.46 and -6.442"}
{"compound": "O=C(COc1cccnc1)NCc1nncn1C1CCCCC1", "A": 7.308, "B": "3.086 and -8.117"}
{"compound": "O=C(O)C(F)(F)F.[H][C@@]12COC[C@]1(CN(C)C)CN(C(=O)Cc1ccc(OC)cc1)C2", "A": -13.43, "B": -19.96}
{"compound": "COc1cccc(OCCCc2cc(C#N)ccn2)c1", "A": -7.903, "B": -25.65}
{"compound": "O=C(Cc1cnc(-c2c(Cl)cccc2Cl)s1)N1CCC2(CC1)OCCO2", "A": 1.714, "B": 7.255}
{"compound": "CC(C)(C)OC(=O)N1CCCN1C(=O)c1cccc(F)c1F", "A": 4.2, "B": -26.03}
{"compound": "CCn1nc(C)cc1C(=O)N1CCOc2ccc(OC)cc21", "A": 20.85, "B": 21.33}
{"compound": "Cc1ccc(C(NC(=O)CCNC(=O)c2ccoc2)C(F)(F)F)cc1", "stereo": "configuration not stated", "A": -9.024, "B": "16.22 and -1.786"}
{"compound": "Cc1ccc(C(=O)NC2CCN(Cc3noc(C(C)(C)C)n3)CC2)s1", "A": -9.849, "B": -6.968}
{"compound": "O=C(O)C(F)(F)F.[H][C@@]12CCN(CC3CCOCC3)[C@@]1([H])CCN2C(=O)c1ccc(F)cc1", "A": "3.863 and -18.39", "B": -11.34}
{"compound": "CCC(CC)c1nnc(NC(=O)NC(C)Cn2cccn2)s1", "stereo": "configuration not stated", "A": -24.9, "B": -34.94}
{"compound": "O=C(CCCc1cn[nH]c1)N1CCOCC(O)C1", "stereo": "configuration not stated", "A": -12.83, "B": "-0.5493 and -16"}
{"compound": "CC(C)Cc1cc(C(=O)N2CCC(N3CCCC3)CC2)cc(O)n1", "A": 16.17, "B": "-1.25 and 22.09"}
{"compound": "CN1CCC(Cc2cnc(CNC(=O)Cc3cccc(F)c3)cn2)CC1", "A": "-17.72 and -1.504", "B": -2.378}
{"compound": "[H][C@@]12CN(Cc3cccnc3OC)C[C@]1([H])CN(c1ncccn1)C2", "A": -22.99, "B": -39.87}
{"compound": "NC(=O)C1CCN(C(=O)NCc2ccc3c(c2)OCCO3)CC1", "A": -12.44, "B": "-0.6 and -2.252"}
{"compound": "CN1C(=O)C2(CCN(C(=O)c3cccnc3)CC2)c2cccc(F)c21", "A": 6.242, "B": "-4.795 and 6.845"}
{"compound": "N#CC(NC(=O)c1cccc2c1OCCO2)c1ccc(F)cc1F", "stereo": "configuration not stated", "A": 0.06857, "B": 10.48}
{"compound": "Cn1ccnc1CN1CCCN(C(=O)c2ccc3ccccc3c2)CC1", "A": 12.02, "B": 23.58}
{"compound": "Cc1cc(NC(=O)NCC(c2ccsc2)N(C)C)n(C)n1", "stereo": "configuration not stated", "A": -4.884, "B": 3.097}
{"compound": "O=C(NCCc1cc(=O)[nH]cn1)c1[nH]nc2c1CCCC2", "A": -0.555, "B": 16.6}
{"compound": "CCCc1ccc(OC23CCCN(CC2)C3)c(OC)c1", "stereo": "configuration not stated", "A": 66.9, "B": 73.34}
{"compound": "Cn1/c(=N/C(=O)CSCC(=O)Nc2nccs2)sc2ccccc21", "A": -15.29, "B": "-40.28 and -1.52"}

Once more, the final 4:

- Cc1cc(NC(=O)NCC(c2ccsc2)N(C)C)n(C)n1 (configuration not stated) | A: -4.884%; B: 3.097%
- O=C(NCCc1cc(=O)[nH]cn1)c1[nH]nc2c1CCCC2 | A: -0.555%; B: 16.6%
- CCCc1ccc(OC23CCCN(CC2)C3)c(OC)c1 (configuration not stated) | A: 66.9%; B: 73.34%
- Cn1/c(=N/C(=O)CSCC(=O)Nc2nccs2)sc2ccccc21 | A: -15.29%; B: -40.28% and -1.52%

Measurements from “University of Dundee, Small-Polar-MMV Screening Library” (2021), ChEMBL document CHEMBL3988442.